PubChem BioAssay AID504793 | Drosophila RNAi Screening Center – 2011

- Aim: 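Whole-genome screen for parts of the DNA damage checkpoint at G2/M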 (primary screen)
- System: Drosophila S2R+ cells
- Knock-down reagent: long dsRNA against Drosophila genes, about 0.25 µg dsRNA per well
- Timing: 4 days of dsRNA, then 4 hours of drug before read-out
- Treatment: doxorubicin 0.5 µM for 4 hours to cause double-strand breaks, in cells also given a low, harmless dose of dsRNA against nbs to sensitise the assay
- Detection: 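Mitotic index as the number of phospho-histone H3-positive cells in each well following doxorubicin, given as raw counts without normalisation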
- Direction: mitotic cells: higher = more cells in mitosis, weaker G2 arrest
- Rule for the call: 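a call needs confirmation in secondary tests, with other dsRNAs and a check of mitotic timing without damage, not just a high primary count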
- Meaning of the calls: active = confirmed in follow-up tests; inactive = not confirmed
The deposit covers about 23,000 reagents; shown is a random part of those that have a named target and a result. Over the whole deposit, 62 (0.27%) were called active. 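Calls come from follow-up tests whose scores are not deposited, so confirmed genes may have low counts here; counts are not normalised per plate.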 Raw values are not corrected between plates. A number with no mark means an inactive call. The numbers tell different reagents against one gene apart. Names joined by + are all predicted targets of the reagent. Reagent sequences are not shown.

ppk14 showed mitotic cells, replicate 1 = 8. After knock-down of Nup107, the screen gave mitotic cells, replicate 1 = 3. With knock-down of CG17717, the record shows mitotic cells, replicate 1 = 8. With knock-down of Grx3 the results were mitotic cells, replicate 1 = 4. With knock-down of Prosalpha1R + Prosalpha1 #1, the screen gave mitotic cells, replicate 1 = 82. Prosalpha1R + Prosalpha1 #2 showed mitotic cells, replicate 1 = 106.

Knock-down of Octbeta3R #1 gave: mitotic cells, replicate 1 = 5. With knock-down of Octbeta3R #2, the screen gave mitotic cells, replicate 1 = 6. After knock-down of Octbeta3R #3, the record shows mitotic cells, replicate 1 = 4. With knock-down of Octbeta3R #4, the record shows mitotic cells, replicate 1 = 11. With knock-down of Octbeta3R #5, the screen gave mitotic cells, replicate 1 = 4. Silencing of Octbeta3R #6 gave: mitotic cells, replicate 1 = 9.

Depletion of Octbeta3R #7 came out at: mitotic cells, replicate 1 = 5. Knock-down of Octbeta3R #8 gave: mitotic cells, replicate 1 = 5. Against tutl #1, the values are mitotic cells, replicate 1 = 1. Silencing of tutl #2 came out at: mitotic cells, replicate 1 = 8. With knock-down of tutl #3, the screen gave mitotic cells, replicate 1 = 2. For tutl #4 the deposit lists mitotic cells, replicate 1 = 10.

Silencing of CG11593 came out at: mitotic cells, replicate 1 = 9. For ec #1, the entry reads mitotic cells, replicate 1 = 11. ec #2 scored mitotic cells, replicate 1 = 5. Depletion of Or1a resulted in: mitotic cells, replicate 1 = 7. With knock-down of CG3408 the results were mitotic cells, replicate 1 = 5.

3 of these entries, reformatted:
Target gene,reagent no.,"mitotic cells, replicate 1"
Octbeta3R,7,5
Octbeta3R,8,5
tutl,1,1
